No constants are given. Whether binding was seen depends on the method and setting. Binding seen in cells or lysates may run through a third protein. Some entries that bind do so weakly or less than the wild type.
How the values were obtained:
[1] = biological target: FLAG-tagged CDK9 (UniProt P50750); test: co-immunoprecipitation from cells co-expressing ALK and FLAG-tagged CDK9, Western blot (FIG. 15A)
[2] = biological target: Poly(ADP-ribose) polymerase 1 (PARP1) (UniProt P09874); test: co-immunoprecipitation: PARP1 IP from SUM149 and BR#09 cell lysates, Western blot for FGFR3 (FIG. 10A)
[3] = biological target: Poly(ADP-ribose) polymerase 1 (PARP1) (UniProt P09874); test: co-immunoprecipitation, figure legend of FIGS. 10A-10D
[4] = biological target: Poly(ADP-ribose) polymerase 1 (PARP1) (UniProt P09874); test: proximity ligation assay in fixed BR cells (FIG. 3A); signal lower with talazoparib plus PD173074

Sequences of proteins named here, by UniProt entry; tags and fusion partners are left off. Residues count along the entry.
UniProt P50750: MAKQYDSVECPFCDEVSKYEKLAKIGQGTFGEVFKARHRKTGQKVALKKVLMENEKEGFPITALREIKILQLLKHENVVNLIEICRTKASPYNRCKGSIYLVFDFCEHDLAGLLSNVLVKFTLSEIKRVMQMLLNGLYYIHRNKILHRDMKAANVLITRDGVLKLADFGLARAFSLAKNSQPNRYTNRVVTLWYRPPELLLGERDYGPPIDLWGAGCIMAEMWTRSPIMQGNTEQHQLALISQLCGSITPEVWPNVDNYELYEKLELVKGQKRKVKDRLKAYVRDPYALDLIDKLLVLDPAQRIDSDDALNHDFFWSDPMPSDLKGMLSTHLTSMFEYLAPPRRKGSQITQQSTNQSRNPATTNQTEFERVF
UniProt P09874, residues 2-1014: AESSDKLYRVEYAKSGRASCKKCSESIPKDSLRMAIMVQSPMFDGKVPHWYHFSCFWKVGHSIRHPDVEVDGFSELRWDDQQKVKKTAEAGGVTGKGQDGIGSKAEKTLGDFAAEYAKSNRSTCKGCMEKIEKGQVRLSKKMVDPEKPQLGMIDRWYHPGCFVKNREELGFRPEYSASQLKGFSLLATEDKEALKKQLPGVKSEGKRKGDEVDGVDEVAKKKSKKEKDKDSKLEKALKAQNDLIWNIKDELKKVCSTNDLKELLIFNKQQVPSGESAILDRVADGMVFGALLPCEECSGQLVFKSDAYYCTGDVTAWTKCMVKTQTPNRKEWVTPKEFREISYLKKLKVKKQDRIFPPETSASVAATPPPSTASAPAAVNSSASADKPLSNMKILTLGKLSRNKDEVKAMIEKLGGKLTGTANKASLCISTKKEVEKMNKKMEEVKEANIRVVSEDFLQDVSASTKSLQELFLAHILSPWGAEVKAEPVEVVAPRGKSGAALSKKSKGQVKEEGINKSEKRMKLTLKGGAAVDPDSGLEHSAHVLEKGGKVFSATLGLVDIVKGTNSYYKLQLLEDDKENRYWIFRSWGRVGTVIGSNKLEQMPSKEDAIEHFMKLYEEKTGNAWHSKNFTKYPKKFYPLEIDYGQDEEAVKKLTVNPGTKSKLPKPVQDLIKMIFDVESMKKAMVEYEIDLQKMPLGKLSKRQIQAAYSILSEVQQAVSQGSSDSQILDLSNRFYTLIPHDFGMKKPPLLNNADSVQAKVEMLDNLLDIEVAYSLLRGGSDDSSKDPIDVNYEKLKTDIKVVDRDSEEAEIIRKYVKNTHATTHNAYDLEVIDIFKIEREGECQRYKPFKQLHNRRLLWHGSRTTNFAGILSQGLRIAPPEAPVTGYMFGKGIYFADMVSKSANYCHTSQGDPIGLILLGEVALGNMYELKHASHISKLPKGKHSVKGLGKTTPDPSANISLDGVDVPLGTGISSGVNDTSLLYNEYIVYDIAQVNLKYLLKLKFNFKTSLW
UniProt Q9UM73, residues 19-1620: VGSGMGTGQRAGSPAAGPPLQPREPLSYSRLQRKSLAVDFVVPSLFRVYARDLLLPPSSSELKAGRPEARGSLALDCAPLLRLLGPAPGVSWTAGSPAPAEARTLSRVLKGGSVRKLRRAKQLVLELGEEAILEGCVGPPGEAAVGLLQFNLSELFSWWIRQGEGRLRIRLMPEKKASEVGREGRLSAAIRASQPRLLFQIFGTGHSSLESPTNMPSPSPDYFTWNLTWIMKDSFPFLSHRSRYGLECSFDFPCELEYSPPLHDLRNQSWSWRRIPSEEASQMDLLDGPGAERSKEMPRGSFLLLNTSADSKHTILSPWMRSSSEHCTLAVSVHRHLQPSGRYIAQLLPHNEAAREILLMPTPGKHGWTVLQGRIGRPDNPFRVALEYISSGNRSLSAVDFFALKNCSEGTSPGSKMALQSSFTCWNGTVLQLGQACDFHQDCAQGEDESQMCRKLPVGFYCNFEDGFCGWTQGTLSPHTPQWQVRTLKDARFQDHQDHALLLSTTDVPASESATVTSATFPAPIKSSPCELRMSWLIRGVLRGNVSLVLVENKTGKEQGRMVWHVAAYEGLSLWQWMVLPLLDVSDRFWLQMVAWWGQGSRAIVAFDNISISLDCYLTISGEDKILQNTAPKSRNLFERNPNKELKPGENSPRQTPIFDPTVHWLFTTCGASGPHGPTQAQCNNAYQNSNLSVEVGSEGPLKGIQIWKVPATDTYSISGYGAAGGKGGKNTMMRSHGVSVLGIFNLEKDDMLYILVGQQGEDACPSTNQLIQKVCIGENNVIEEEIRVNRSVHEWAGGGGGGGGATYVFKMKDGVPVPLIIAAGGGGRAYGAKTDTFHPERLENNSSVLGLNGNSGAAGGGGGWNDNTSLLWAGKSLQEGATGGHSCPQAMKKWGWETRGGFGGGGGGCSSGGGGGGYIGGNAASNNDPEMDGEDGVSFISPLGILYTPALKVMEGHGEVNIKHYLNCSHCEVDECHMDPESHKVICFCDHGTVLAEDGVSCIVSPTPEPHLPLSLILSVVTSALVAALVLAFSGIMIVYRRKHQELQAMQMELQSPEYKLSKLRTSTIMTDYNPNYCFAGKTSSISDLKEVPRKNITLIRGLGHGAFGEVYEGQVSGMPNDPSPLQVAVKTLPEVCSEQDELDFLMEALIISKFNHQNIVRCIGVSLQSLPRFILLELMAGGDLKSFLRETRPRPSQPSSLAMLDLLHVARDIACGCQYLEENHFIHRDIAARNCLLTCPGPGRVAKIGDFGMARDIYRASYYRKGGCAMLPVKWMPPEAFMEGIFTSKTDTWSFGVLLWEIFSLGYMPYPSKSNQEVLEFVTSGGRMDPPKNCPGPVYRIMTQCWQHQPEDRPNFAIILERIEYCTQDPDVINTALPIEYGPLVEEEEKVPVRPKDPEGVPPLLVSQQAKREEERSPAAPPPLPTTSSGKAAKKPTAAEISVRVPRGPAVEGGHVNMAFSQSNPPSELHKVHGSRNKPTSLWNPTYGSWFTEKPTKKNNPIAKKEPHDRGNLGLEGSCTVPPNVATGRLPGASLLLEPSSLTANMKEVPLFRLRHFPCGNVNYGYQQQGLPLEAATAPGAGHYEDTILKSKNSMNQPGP
UniProt P22607, residues 23-806: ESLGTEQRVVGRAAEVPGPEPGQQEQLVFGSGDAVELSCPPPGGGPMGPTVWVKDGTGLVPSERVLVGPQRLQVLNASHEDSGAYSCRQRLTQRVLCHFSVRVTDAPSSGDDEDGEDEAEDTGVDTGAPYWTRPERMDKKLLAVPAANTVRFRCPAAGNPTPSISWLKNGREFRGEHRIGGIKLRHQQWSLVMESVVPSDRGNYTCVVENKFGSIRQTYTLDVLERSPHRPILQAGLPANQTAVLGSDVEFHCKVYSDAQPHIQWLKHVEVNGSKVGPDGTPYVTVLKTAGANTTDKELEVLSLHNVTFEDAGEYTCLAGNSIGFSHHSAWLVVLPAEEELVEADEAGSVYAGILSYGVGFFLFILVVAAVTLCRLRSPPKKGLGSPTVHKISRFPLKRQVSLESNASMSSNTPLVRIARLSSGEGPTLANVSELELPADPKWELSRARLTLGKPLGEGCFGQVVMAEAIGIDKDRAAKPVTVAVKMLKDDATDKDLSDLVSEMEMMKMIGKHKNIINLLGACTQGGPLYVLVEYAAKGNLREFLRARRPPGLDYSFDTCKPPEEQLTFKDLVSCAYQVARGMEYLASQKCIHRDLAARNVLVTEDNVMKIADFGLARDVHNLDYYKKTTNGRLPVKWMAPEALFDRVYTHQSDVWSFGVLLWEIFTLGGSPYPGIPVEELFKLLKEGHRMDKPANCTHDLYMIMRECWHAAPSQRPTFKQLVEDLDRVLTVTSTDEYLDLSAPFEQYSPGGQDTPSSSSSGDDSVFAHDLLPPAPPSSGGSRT

Row | Substance | binding [1] | binding [2] | binding [3] | binding [4]
1 | Anaplastic lymphoma kinase (ALK) (from UniProt Q9UM73 19-1620) (receptor) | binds | – | – | –
2 | Fibroblast growth factor receptor 3 (FGFR3) (from UniProt P22607 23-806) | – | binds | binds | binds

Source: US20220305015A1, “COMBINATORIAL THERAPY TARGETING PARP1 AND RTK” (Board of Regents, The University of Texas System, priority 2019, published 2022)
